Results are given in words; binding and its absence hold for the method and conditions named. Binding seen in cells or lysates may run through a third protein. Some binding calls cover weakened binding; strength is not graded here. Tags and fused reporters may be left off the sequences shown.

Protein sequences, listed by entry. Tags and fused reporters are not part of them.
UniProt P46937: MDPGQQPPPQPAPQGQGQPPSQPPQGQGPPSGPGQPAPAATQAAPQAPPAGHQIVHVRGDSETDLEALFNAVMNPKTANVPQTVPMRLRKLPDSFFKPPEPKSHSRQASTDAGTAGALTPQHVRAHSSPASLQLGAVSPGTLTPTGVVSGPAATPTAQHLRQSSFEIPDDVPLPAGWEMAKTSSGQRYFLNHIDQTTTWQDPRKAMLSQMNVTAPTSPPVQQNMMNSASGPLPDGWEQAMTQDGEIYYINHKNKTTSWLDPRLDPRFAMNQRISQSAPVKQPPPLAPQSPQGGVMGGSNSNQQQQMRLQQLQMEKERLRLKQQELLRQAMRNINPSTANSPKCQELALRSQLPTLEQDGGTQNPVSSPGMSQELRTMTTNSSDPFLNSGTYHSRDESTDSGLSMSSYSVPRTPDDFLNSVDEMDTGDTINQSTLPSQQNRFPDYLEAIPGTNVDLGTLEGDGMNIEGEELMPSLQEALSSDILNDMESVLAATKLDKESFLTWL

For experiment [1], the target named is T1, human NEK8-GFP wild type (human) (UniProt Q86SG6).
T1 sequence: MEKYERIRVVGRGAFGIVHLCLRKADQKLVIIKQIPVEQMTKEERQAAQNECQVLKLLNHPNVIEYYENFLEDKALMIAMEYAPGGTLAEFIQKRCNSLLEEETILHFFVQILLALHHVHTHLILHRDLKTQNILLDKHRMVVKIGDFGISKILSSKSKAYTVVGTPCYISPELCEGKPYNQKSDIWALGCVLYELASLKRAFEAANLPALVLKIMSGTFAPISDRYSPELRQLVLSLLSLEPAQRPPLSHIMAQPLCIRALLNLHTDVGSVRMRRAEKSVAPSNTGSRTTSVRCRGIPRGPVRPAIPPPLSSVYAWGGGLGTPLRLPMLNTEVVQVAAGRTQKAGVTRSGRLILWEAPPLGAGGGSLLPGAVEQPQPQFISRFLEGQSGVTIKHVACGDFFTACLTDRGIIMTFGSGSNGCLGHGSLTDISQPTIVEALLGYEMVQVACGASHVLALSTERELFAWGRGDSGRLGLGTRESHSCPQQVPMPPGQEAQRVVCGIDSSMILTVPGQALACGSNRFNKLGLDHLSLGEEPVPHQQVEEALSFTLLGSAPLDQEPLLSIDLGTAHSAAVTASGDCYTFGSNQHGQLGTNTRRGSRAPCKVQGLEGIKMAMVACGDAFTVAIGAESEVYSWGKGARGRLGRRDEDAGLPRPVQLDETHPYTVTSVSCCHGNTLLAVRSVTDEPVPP
Briefly: proximity ligation; in situ PLA (OLINK) on HEK293 cells co-expressing YAP-myc and NEK8-GFP WT, fixed 48 h after transfection; anti-rabbit GFP and anti-mouse Myc antibodies; probes within less than 40 nm give a signal; confocal microscopy.

Experiment [2] addresses T1, human NEK8-GFP wild type (human). Briefly: co-IP; lysates of HEK293T cells co-expressing GFP-tagged WT or mutant NEK8 and Flag-ANKS6; immunoprecipitated with an anti-GFP antibody (Miltenyi-Biotec beads protocol); western blot with GFP and Flag antibodies; Flag versus GFP band intensities quantified. A general note: A western blot detects proteins with antibodies after separation by electrophoresis.

Turning to YAP-myc (from UniProt P46937 1-504), in experiment [1], the binding result is recorded as “binds”.

B1: Flag-ANKS6 (protein, UniProt Q68DC2-1 1-871)
chain: MGEGGLPPAFQLLLRACDQGDTETARRLLEPGAAEPAERGAEPEAGAEPAGAEVAGPGAAAAGAVGAPVPVDCSDEAGNTALQFAAAGGHEPLVRFLLRRGASVNSRNHYGWSALMQAARFGHVSVAHLLLDHGADVNAQNRLGASVLTVASRGGHLGVVKLLLEAGAFVDHHHPSGEQLGLGGSRDEPLDITALMAAIQHGHEAVVRLLMEWGADPNHAARTVGWSPLMLAALTGRLGVAQQLVEKGANPDHLSVLEKTAFEVALDCKHRDLVDYLDPLTTVRPKTDEEKRRPDIFHALKMGNFQLVKEIADEDPSHVNLVNGDGATPLMLAAVTGQLALVQLLVERHADVDKQDSVHGWTALMQATYHGNKEIVKYLLNQGADVTLRAKNGYTAFDLVMLLNDPDTELVRLLASVCMQVNKDKGRPSHQPPLPHSKVRQPWSIPVLPDDKGGLKSWWNRMSNRFRKLKLMQTLPRGLSSNQPLPFSDEPEPALDSTMRAAPQDKTSRSALPDAAPVTKDNGPGSTRGEKEDTLLTTMLRNGAPLTRLPSDKLKAVIPPFLPPSSFELWSSDRSRTRHNGKADPMKTALPQRASRGHPVGGGGTDTTPVRPVKFPSLPRSPASSANSGNFNHSPHSSGGSSGVGVSRHGGELLNRSGGSIDNVLSQIAAQRKKAAGLLEQKPSHRSSPVGPAPGSSPSELPASPAGGSAPVGKKLETSKRPPSGTSTTSKSTSPTLTPSPSPKGHTAESSVSSSSSHRQSKSSGGSSSGTITDEDELTGILKKLSLEKYQPIFEEQEVDMEAFLTLTDGDLKELGIKTDGSRQQILAAISELNAGKGRERQILQETIHNFHSSFESSASNTRAPGNSPCA
Take B1: in experiment [2], the binding entry is recorded as “binds”.
